# Test results from patent publication US20240165132A1, “METHODS AND MATERIALS FOR TREATING CANCER” (Mayo Foundation for Medical Education and Research, priority 2021, published 2024).
# For at least one compound, name, drawing or mass did not settle the structure.
# Key:
# GBM10 = experiment: Senolytic drug screen, CellTiter-Glo viability; assay type: cell-based, human; settings: radiated GBM 10 cells
# Experimental: Human patient-derived glioblastoma lines were utilized and were cultured according to established protocols. Tumor lines maintained as patient-derived xenografts (PDX) are from the National PDX resource. Such lines are designated as “GBM-6, 10, 12, 39, 76, 123, 164, or 196”. Implantation of patient-derived glioblastoma cells, serial passage of flank tumor xenografts, and short-term explant culturing were done as described elsewhere, with some lines maintained in serum-containing media, and some lines maintained in serum free media as noted in Table 2 (see, for example, Carlson et al., Current protocols in pharmacology. Chapter 14(14):Unit 14.16 (2011)). Some cell lines were maintained from time of harvest as in vitro cell lines rather than PDX lines, as described elsewhere (see, for example, Himes et al., Neuro-oncology. 22(7):967-978 (2020)). […]
# Human glioblastoma cells were exposed to 10, 15 or 20 Gy radiation as indicated above. […] For all experiments, luminescence values are normalized to the 0 nM control for that cell line and radiation dose. […]
# Multiple linear regressions were used to assess the relationship of drug dose and treatment (e.g. control, radiation, TMZ) with cell inhibition within each cell line. […] IC50 was calculated by nonlinear regression (Curve fit) of dose-response inhibition curve by using GraphPad prism 8.4.2.
# GBM39, 76, 10 and 123 = experiment: BCL-2-family inhibitors in radiated vs non-radiated GBM lines; assay type: cell-based, human; settings: GBM39, 76, 10, 123; 4 days drug starting 21 days after radiation
# Experimental: Dose response curves shown for control non-radiated (black) and 15 Gy radiated (grey) cells. Cells were exposed to drug for 4 days, starting 21 days after radiation. […] For all groups, luminescence values are normalized individually to 0 nM control. Data shown are means±SEM of three technical replicates at each concentration. Data shown are representative of multiple confirmatory experiments.
# Human glioblastoma cells were exposed to 10, 15 or 20 Gy radiation as indicated above. All GBM lines tested (Table 2) yielded a subpopulation of surviving non-proliferative cells used for subsequent experiments, with the exception of GM43 which yielded insufficient surviving cells for senescence experiments. All senolytic drugs used in this study were dissolved in DMSO (Table 1). Control (0 nM) cells were treated with the same dose of DMSO as cells with the highest drug concentration. Unless specified otherwise, cells were maintained in drug-containing media for four days prior to evaluation of cell viability using ATP lite, CellTiter-Glo assay according to company protocol (Cat #G7570). For all experiments, luminescence values are normalized to the 0 nM control for that cell line and radiation dose. […]
# Among the 13 human GBM cell lines evaluated, meaningful analysis was possible in all with the exception of GBM43, for which insufficient cells survived radiation to permit testing. […]
smiles,measurement,setting,value
CC1(C)CCC(CN2CCN(c3ccc(C(=O)NS(=O)(=O)c4ccc(NCC5CCOCC5)c([N+](=O)[O-])c4)c(Oc4cnc5[nH]ccc5c4)c3)CC2)=C(c2ccc(Cl)cc2)C1 [Venetoclax],Viability of radiated cells with high dose drug,GBM10,lower viability
same,Sensitivity of 15 Gy-radiated vs non-radiated cells,"GBM39, 76, 10 and 123",no selective ablation
